These are yes or no findings as the source states them, for the method shown. In cells and extracts the contact can be indirect. These calls come from enrichment with a bait or labelling near it, and not all partners need be listed. A no says only that the protein was not detected with the bait. Sequences can lack the tags named with a protein.
Molecular target: T1, Recombinant His-tagged Endocan (UniProt Q9NQ30)
T1 sequence: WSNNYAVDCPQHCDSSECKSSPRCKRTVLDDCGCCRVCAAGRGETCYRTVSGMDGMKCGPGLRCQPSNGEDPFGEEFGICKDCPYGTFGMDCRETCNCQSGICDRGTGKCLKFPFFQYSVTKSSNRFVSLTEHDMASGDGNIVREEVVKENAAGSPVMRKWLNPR
Assay: affinity purification with mass spectrometry

Sequences of proteins named here, by UniProt entry; tags and fusion partners are left off. Residues count along the entry.
UniProt P16234, residues 24-1089: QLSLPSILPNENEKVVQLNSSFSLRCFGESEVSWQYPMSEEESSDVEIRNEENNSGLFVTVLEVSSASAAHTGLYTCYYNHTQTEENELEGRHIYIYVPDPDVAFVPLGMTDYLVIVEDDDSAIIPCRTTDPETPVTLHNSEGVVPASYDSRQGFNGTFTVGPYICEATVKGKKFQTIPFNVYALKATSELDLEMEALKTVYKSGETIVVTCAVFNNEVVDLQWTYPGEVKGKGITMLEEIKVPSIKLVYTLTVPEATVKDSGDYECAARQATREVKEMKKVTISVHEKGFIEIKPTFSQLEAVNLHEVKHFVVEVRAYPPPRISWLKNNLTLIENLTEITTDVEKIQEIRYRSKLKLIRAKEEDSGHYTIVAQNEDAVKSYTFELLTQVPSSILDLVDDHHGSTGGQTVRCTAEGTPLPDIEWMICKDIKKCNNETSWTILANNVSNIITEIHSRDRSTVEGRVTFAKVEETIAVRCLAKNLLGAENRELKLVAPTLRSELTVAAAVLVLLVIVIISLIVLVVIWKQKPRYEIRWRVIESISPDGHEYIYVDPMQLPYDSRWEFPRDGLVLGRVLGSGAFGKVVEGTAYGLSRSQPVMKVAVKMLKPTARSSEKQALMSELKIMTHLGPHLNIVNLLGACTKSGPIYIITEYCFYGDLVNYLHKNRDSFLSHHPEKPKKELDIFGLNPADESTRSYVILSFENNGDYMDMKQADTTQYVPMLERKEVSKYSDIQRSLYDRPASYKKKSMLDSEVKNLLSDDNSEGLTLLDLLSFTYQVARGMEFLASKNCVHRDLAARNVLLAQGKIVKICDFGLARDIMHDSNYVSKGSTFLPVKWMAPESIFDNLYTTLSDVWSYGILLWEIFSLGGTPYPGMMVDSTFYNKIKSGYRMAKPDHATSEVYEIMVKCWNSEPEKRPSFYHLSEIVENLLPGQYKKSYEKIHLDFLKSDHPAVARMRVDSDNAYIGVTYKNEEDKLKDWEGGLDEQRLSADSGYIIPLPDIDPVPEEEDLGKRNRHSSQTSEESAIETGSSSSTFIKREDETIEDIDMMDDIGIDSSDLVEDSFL
UniProt P20701, residues 26-1170: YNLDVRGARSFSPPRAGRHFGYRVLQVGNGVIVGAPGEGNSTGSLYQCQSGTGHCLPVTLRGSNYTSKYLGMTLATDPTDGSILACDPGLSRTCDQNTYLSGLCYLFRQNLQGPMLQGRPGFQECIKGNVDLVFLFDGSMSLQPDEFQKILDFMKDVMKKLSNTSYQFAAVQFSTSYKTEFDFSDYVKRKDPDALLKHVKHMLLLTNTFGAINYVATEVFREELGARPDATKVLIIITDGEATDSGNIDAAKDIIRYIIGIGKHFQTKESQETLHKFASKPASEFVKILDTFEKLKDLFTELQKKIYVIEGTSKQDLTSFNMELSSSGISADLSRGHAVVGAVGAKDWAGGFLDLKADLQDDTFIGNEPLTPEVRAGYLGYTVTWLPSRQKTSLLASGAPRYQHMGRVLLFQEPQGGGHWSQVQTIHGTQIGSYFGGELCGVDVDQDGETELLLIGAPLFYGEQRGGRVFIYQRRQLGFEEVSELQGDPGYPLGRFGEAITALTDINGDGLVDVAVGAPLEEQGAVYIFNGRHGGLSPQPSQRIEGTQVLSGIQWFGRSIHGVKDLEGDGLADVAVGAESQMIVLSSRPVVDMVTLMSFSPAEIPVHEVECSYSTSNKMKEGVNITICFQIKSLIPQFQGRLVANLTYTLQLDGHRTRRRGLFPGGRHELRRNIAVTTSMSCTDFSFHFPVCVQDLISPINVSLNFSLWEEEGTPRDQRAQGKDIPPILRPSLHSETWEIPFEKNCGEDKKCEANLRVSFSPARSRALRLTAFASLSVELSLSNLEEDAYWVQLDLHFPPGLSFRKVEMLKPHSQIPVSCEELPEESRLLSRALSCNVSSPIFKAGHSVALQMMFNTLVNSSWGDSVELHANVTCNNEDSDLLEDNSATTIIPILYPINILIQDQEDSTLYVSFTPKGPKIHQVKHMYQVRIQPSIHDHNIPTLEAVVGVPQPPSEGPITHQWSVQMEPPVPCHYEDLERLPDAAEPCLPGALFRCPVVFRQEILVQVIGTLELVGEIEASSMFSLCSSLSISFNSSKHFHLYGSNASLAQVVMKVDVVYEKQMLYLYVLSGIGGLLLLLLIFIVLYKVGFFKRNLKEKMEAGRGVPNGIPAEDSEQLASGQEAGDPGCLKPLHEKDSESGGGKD

Row | Substance | binding
1 | PDGFRA receptor, endogenous in patient-derived glioblastoma cells (from UniProt P16234 24-1089) | binds
2 | CD11a integrin, endogenous in glioblastoma cells (from UniProt P20701 26-1170) (receptor) | no binding

Source: publication doi:10.1101/2020.10.12.335091
